About 1,200 (0.34%) of roughly 350,000 compounds were called active. This list was built around the results that the source calls inconclusive (neither active nor inactive); the mix of calls is not that of the screen. The call rests on the fitted dose curve; in most records, active means well fitted inhibition curve with a large enough effect; inconclusive means small, poorly fitted or top-dose-only effect; inactive means no such curve, though single readings can be large or run the other way. Potencies of inconclusive entries are doubtful fits and often do not repeat.
molecular target: DNA repair nuclease/redox regulator APEX1 (Homo sapiens) (UniProt P27695); assay: qHTS Assay for Inhibitors of the Human Apurinic/apyrimidinic Endonuclease 1 (APE1); details: recombinant APE1, TAMRA/BHQ-2 abasic DNA cleavage fluorescence; activity change, negative = inhibition: at 65.8 µM (top of the series); further: nearly all actives have a fitted effect of over 55% in size;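 on activity change, negative = inhibition: plate controls were vehicle for no effect and reference inhibitor for full effect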
Procedure, shortened: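 Step 1: APE1 (0.75 nM) with compound, 15 min RT. Step 2: add 50 nM fluorophore/quencher THF duplex. Step 3: three fluorescence reads 60 s apart (525/598 nm); read 3 minus read 1 = reaction progress.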
Potency means the concentration at half of the fitted maximal effect.

By UniProt entry, the sequences of proteins in these tests, tags left out.
UniProt P27695, whole entry, looked up: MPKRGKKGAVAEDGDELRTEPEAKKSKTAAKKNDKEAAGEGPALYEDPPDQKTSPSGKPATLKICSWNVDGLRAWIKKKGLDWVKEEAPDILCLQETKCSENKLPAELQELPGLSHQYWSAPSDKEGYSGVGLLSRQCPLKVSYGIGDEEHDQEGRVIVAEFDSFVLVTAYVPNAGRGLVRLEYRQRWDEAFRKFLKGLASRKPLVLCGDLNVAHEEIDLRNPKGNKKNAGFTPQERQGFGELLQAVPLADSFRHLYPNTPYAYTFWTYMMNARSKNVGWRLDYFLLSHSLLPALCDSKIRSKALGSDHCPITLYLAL

Q: With `CN(C)c1ccc(N=Nc2ccc(C(=O)O)cc2)cc1` as the compound, how does the Potency read?
A: Its Potency is inconclusive: 29.9 µM [inhibitor, partial curve].

Q: For `Cc1nc2c(c(=O)n1CCC1=CCCCC1)c1nc3ccccc3nc1n2/N=C/c1ccco1`, which Potency is on record?
A: The Potency was inconclusive: 35.5 µM [inhibitor, single point].

Q: With `Cc1ccc(OCC(=O)Nc2cccc(S(=O)(=O)N3CCCCCC3)c2)c([N+](=O)[O-])n1` as the compound, how does the Potency read?
A: The Potency was inconclusive: 14.1 µM [inhibitor, partial curve].

Q: For `Cc1ccc(SCC(=O)NC(=O)NCc2ccco2)cc1C`, which Potency is on record?
A: The Potency was inconclusive: 39.8 µM [inhibitor, partial curve].

Q: For `Cc1[nH]c(=S)sc1Cc1ccc(Cl)c(Cl)c1`, which Potency is on record?
A: The Potency was inconclusive: 25.1 µM [inhibitor, partial curve].

Q: `O=C1NC(CCc2ccccc2)C(=O)N1Cc1ccc(Br)cc1` (centres undefined) was tested. Which Potency did it give?
A: Its Potency is inconclusive: 39.8 µM [inhibitor, single point].

Q: How did the Potency turn out when `CC(C)NS(=O)(=O)c1ccc(OCC(=O)Nc2ccc(F)cc2)cc1` was run?
A: The Potency was inconclusive: 31.6 µM [inhibitor, single point].

Q: For `S=c1[nH]nc(-c2ccncc2)n1Cc1ccco1`, which “activity change, negative = inhibition” value is on record?
A: Its value is inactive: 11.2%.

Q: Which Potency does the source give for `COc1ccccc1OCc1nc(Cc2ccc(Cl)cc2)no1` here?
A: Its Potency is inconclusive: 20 µM [inhibitor, partial curve, poor fit].

Q: Which “activity change, negative = inhibition” value does the source give for `CCn1c(SCC(N)=O)nc2sc3c(c2c1=O)CCN(C)C3` here?
A: The value was inactive: 4.84%.

Q: How did the Potency turn out when `CC(C)c1ccc(NC(=O)COC(=O)/C=C/c2cccc([N+](=O)[O-])c2)cc1` was run?
A: Its Potency is inconclusive: 1.58 µM [inhibitor, partial curve, poor fit].

Q: For `N=C1S/C(=C\c2ccc(-c3ccccc3C(=O)O)o2)C(=O)N1c1ccc2c(c1)OCO2`, which Potency is on record?
A: The Potency was inconclusive: 39.8 µM [inhibitor, single point].

Q: `Cc1ccc(NC(=O)Nc2cnc3ccccc3c2)cc1` was tested. Which “activity change, negative = inhibition” value did it give?
A: The value was inactive: 27.3%.

Q: For `Oc1ccc(N=Cc2ccc(OCc3ccccc3)cc2)cc1`, which Potency is on record?
A: Its Potency is inconclusive: 28.2 µM [inhibitor, single point].

Q: Which Potency does the source give for `COC(C(=O)Nc1ccnn1C1CCN(Cc2cccc(C)n2)CC1)c1ccccc1` (centres undefined) here?
A: Its Potency is inconclusive: 26.7 µM [inhibitor, single point].

Q: How did the Potency turn out when `NS(=O)(=O)c1ccc(NC(=O)COC(=O)COc2ccc3ccccc3c2)cc1` was run?
A: Its Potency is inconclusive: 50.1 µM [inhibitor, partial curve, poor fit].

Q: How did the Potency turn out when `O=C(NCCN1CCN(c2ccccc2)CC1)C1CCN(S(=O)(=O)c2cccc3nonc23)CC1` was run?
A: The Potency was inconclusive: 22.4 µM [inhibitor, partial curve].

Q: With `COP(=O)(OC)c1nc(-c2cccc3ccccc23)oc1NCc1ccccc1` as the compound, how does the Potency read?
A: Its Potency is inconclusive: 35.5 µM [inhibitor, single point].

Q: `Cc1cccc(C2(c3cccc(C)c3)CC2C(=O)Nc2ccc([N+](=O)[O-])cc2O)c1` (centres undefined) was tested. Which Potency did it give?
A: Its Potency is inconclusive: 28.2 µM [inhibitor, partial curve, poor fit].

Q: How did the Potency turn out when `CN(C(=O)COC(=O)C1CCN(S(=O)(=O)c2cccs2)CC1)c1ccccc1` was run?
A: The Potency was inconclusive: 44.7 µM [inhibitor, single point].

Q: Which Potency does the source give for `CCN1/C(=C/C=C/c2sc3ccccc3[n+]2CC)Sc2ccccc21` here?
A: Its Potency is active: 23.8 µM.

Q: For `CC1CCN(C(=O)COC(=O)c2ccc([N+](=O)[O-])o2)CC1`, which “activity change, negative = inhibition” value is on record?
A: Its value is inactive: -37.8%.

Q: With `O=C(OC1CCOC1=O)c1ccc(NS(=O)(=O)c2cccs2)cc1` (centres undefined) as the compound, how does the “activity change, negative = inhibition” value read?
A: Its value is inactive: -5.5%.

Q: `O=C(NC1CC2CCCC(C1)N2C(=S)Nc1ccccc1)C1CC1` (centres undefined) was tested. Which “activity change, negative = inhibition” value did it give?
A: Its value is inactive: 20.6%.

Q: How did the Potency turn out when `O=C(NCCNCc1ccccn1)c1ccco1` was run?
A: Its Potency is inconclusive: 44.7 µM [inhibitor, single point].

Q: `O=C(c1cc2cc([N+](=O)[O-])ccc2oc1=O)n1cccn1` was tested. Which “activity change, negative = inhibition” value did it give?
A: Its value is inactive: -1.04%.

Q: `CCCCCCCCCCCCCCCCCC(=O)OCC(C)O` (centres undefined) was tested. Which Potency did it give?
A: The Potency was inconclusive: 31.6 µM [inhibitor, single point].

Q: Which Potency does the source give for `CCCCc1cc(=O)oc2cc(OCC(=O)N(CC)CC)ccc12` here?
A: Its Potency is inconclusive: 3.98 µM [inhibitor, single point].

Q: With `CC(NC(=O)Nn1cnnc1)(C(F)(F)F)C(F)(F)F` as the compound, how does the “activity change, negative = inhibition” value read?
A: The value was inactive: -1.56%.

Q: How did the Potency turn out when `COc1cc(/C=C(\C#N)C(N)=O)cc(CSc2nc3ccccc3s2)c1O` was run?
A: Its Potency is “inactive”.

Q: For `Cc1ccccc1Nc1nnc(SCc2nc3ccccc3c(=O)[nH]2)s1`, which Potency is on record?
A: Its Potency is inconclusive: 3.16 µM [inhibitor, single point].

Q: `FC(F)(F)c1ccccc1-c1cc(NCc2ccccc2)ncn1` was tested. Which Potency did it give?
A: Its Potency is inconclusive: 39.8 µM [inhibitor, single point].

Q: Which “activity change, negative = inhibition” value does the source give for `CCOC(=O)Cc1cc(=O)n2[nH]c(-c3ccccc3)cc2n1` here?
A: Its value is inactive: -0.855%.

Q: How did the Potency turn out when `CCCC(=O)Nc1ccc(C(=O)N2CCCC2)cc1` was run?
A: Its Potency is inconclusive: 31.6 µM [inhibitor, single point].

Q: How did the Potency turn out when `COc1ccccc1C1CC(=O)Oc2cc3c(cc21)OCO3` (centres undefined) was run?
A: The Potency was active: 31.6 µM.

Q: Which Potency does the source give for `Cc1cc(/C=C(/C#N)C(=O)Nc2ccccc2)c(C)n1-c1cccnc1` here?
A: The Potency was inconclusive: 0.0141 µM [inhibitor, full curve, poor fit].

Q: `COC(=O)C(c1ccccc1Cl)N1CCc2sccc2C1` (centres undefined) was tested. Which Potency did it give?
A: The Potency was “inactive”.

Q: For `Cc1nc2c(ccc3nc(NC(=O)Cc4cccc5ccccc45)sc32)s1`, which Potency is on record?
A: The Potency was inconclusive: 3.16 µM [inhibitor, full curve, poor fit].

Q: Which Potency does the source give for `CCCCCC(=O)c1cc(CC(C(=O)OC)C(=O)OC)cc2cc(OC)c(OC)cc12` here?
A: Its Potency is inconclusive: 7.08 µM [inhibitor, single point].

Q: `O=C(OC1Cc2c(O)cc(O)cc2OC1c1cc(O)c(O)c(O)c1-c1c(C2Oc3cc(O)cc(O)c3CC2O)cc(O)c(O)c1O)c1cc(O)c(O)c(O)c1` (centres undefined) was tested. Which Potency did it give?
A: The Potency was active: 0.1 µM.

Q: Which Potency does the source give for `COC(=O)C(C)(C(=O)OC)c1ccccc1[N+](=O)[O-]` here?
A: The Potency was inconclusive: 12.6 µM [inhibitor, single point].

Q: For `Cc1ccc(C2C(C#N)=C(N)Oc3n[nH]c(-c4cccs4)c32)s1` (centres undefined), which Potency is on record?
A: The Potency was inconclusive: 44.7 µM [inhibitor, single point].

Q: With `COc1cc(NC(=O)COC(=O)c2ccc([N+](=O)[O-])s2)cc(OC)c1OC` as the compound, how does the Potency read?
A: Its Potency is inconclusive: 3.77 µM [inhibitor, full curve].

Q: `Cc1ccccc1Cn1c2ccccc2c2cnn(CC(=O)NCc3ccco3)c(=O)c21` was tested. Which Potency did it give?
A: The Potency was inconclusive: 39.8 µM [inhibitor, single point].

From PubChem BioAssay AID2517 (National Center for Advancing Translational Sciences (NCATS), 2010)
